PubChem BioAssay AID743121 | NCATS | 2013
This is one part, drawn at random, of about 26,000 reagents. 167 of all reagents (0.63%) were called active. 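Calls are per gene from RSA p-values that are not deposited; an individual active-marked siRNA can sensitise only weakly.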

Aim: 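Genes whose silencing strengthens cell killing by camptothecin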 (primary screen)
Cells: MDA-MB-231 cells, a human breast cancer line
Reagent: single siRNA against human genes, 20 nM siRNA (0.8 pmol per well)
Time to read-out: 120 h (drug added 48 h after transfection, read 72 h later)
Conditions: camptothecin 20 nM (about EC30) for 72 h; vehicle 0.1% DMSO in parallel plates
Measurement: 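Cell viability by ATP luminescence (CellTiter-Glo) as % of non-targeting siRNA wells, and the log2 ratio of viability without drug over viability with camptothecin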
Reading the numbers: log2 vehicle/camptothecin viability: higher = stronger sensitisation to camptothecin; viability with camptothecin and viability without drug: higher = more viable cells
Active means: 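Each gene scored by redundant siRNA activity (RSA) over its individual siRNA ratios; a gene is called active at p < 0.001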

log2 vehicle/camptothecin viability,viability with camptothecin (% of control),viability without drug (% of control),Call,gene symbol,PubChem SID
-0.23,66.4,56.6,inactive,MS4A6E,SID164603277
-0.0422,85.5,83,inactive,MS4A6E,SID164603279
0.0361,116,118,inactive,MS4A6E,SID164603280
-0.579,93.1,62.3,inactive,MS4A6E,SID164603281
-0.181,36.6,32.2,inactive,ALDH3B2,SID164353009
-0.582,55.8,37.3,inactive,ALDH3B2,SID164353011
-0.0432,49.9,48.5,inactive,ALDH3B2,SID164353012
-0.0675,97.4,93,inactive,ALDH3B2,SID164353013
-0.115,71.2,65.7,inactive,CCL20,SID164387363
-0.178,93.1,82.3,inactive,CCL20,SID164387364
-0.133,101,92,inactive,CCL20,SID164387367
-0.237,73.2,62.1,inactive,CCL20,SID164387368
-0.231,94,80.1,inactive,BTBD6,SID164549807
-0.257,60.7,50.8,inactive,BTBD6,SID164549809
0.416,2.73,3.65,inactive,PDGFB,SID164379971
0.0573,74.2,77.2,inactive,PDGFB,SID164379972
0.221,62.9,73.3,inactive,PDGFB,SID164379973
-0.376,96.7,74.6,inactive,PDGFB,SID164379976
-0.529,134,92.7,inactive,HYAL2,SID164399241
0.419,23.5,31.4,inactive,HYAL2,SID164399243
-0.225,113,96.7,inactive,HYAL2,SID164399246
0.0981,87.5,93.6,inactive,HYAL2,SID164399247
-0.515,65.9,46.1,inactive,MYF6,SID164376702
0.478,13.3,18.5,inactive,MYF6,SID164376704
-0.185,89.7,78.9,inactive,MYF6,SID164376706
-0.381,68.5,52.6,inactive,ITGA8,SID164398117
-0.0201,57.2,56.4,inactive,ITGA8,SID164398121
-0.532,79.5,55,inactive,ITGA8,SID164398122
-0.0868,57,53.7,inactive,ITGA8,SID164398123
-0.437,52,38.4,inactive,ALKBH8,SID164551384
0.185,80.9,92,inactive,ALKBH8,SID164551386
-0.66,53.4,33.8,inactive,ALKBH8,SID164551389
-0.253,93.7,78.6,inactive,ALKBH8,SID164551390
0.803,34.9,60.9,inactive,FBXO7,SID164456960
-0.118,38.4,35.4,inactive,FBXO7,SID164456961
-0.151,87.3,78.6,inactive,FBXO7,SID164456962
0.0802,76.9,81.3,inactive,FBXO7,SID164456963
-0.169,53.1,47.2,inactive,TCF7L2,SID164391115
0.0331,94.7,96.9,inactive,TCF7L2,SID164391116
-0.0931,82.2,77,inactive,TCF7L2,SID164391118
-0.187,20.7,18.2,inactive,TCF7L2,SID164391120
-0.29,20,16.3,inactive,SEPTIN9,SID164413533
-0.575,99.5,66.8,inactive,SEPTIN9,SID164413537
-0.284,83.1,68.3,inactive,SEPTIN9,SID164413540
-0.314,110,88.8,inactive,SEPTIN9,SID174316087
-0.374,68.5,52.9,inactive,WARS2,SID164410485
-0.0627,96.4,92.3,inactive,WARS2,SID164410486
-0.0973,45.7,42.7,inactive,WARS2,SID164410487
0.00295,88.3,88.5,inactive,WARS2,SID164410488

Targets listed so far whose target name starts with W or w:
log2 vehicle/camptothecin viability,viability with camptothecin (% of control),viability without drug (% of control),Call,gene symbol,PubChem SID
-0.374,68.5,52.9,inactive,WARS2,SID164410485
-0.0627,96.4,92.3,inactive,WARS2,SID164410486
-0.0973,45.7,42.7,inactive,WARS2,SID164410487
0.00295,88.3,88.5,inactive,WARS2,SID164410488
